At least one structure is not confirmed: it was looked up by name or label, or the drawing left a doubt.
Key:
[1] = system: LTED MCF7 cells; assay: LTED MCF7 cell proliferation assay; format: cell-based; settings: model of aromatase resistance, 10^-11-10^-6 M, 8 day assay
[2] = system: MCF7 cells; assay: MCF7 proliferation in response to E2 or insulin; format: cell-based; settings: SERMs and SERDs 10^-6 M, insulin 2×10^-9 M
Procedure: The expression of ESR1 target genes responsive to (FIG. 10A) agonists, (FIG. 10B) primarily SERMs, or (FIG. 10C) SERMs and agonists was analyzed as in FIG. 5. Relative changes of these and additional target genes designed to evaluate dose dependent response to RAD1901 are presented in FIG. 11. Significant target gene regulation (*p<0.05) as compared to the vehicle control was detected by 2 way ANOVA followed by Fisher's LSD (Graphpad Prism 6). […] Triplicate wells of SKBR3 cells were transfected with plasmids expressing ESR1 fused to VP16 together with Gal4DBD alone (control) or Gal4DBD fused to ESR1 interacting peptides noted on the horizontal axis. […] Interaction of ESR1 with the Gal4DBD peptide constructs was detected through activation of a Gal4-responsive luciferase reporter construct and was normalized to detected β-galactosidase activity expressed in a constitutive manner using a second vector. Normalized response was expressed as fold increase over the detected level of interaction between Gal4DBD alone and ESR1-VP16 in the absence of ligand (Veh). For FIG. 10E, the effect of SERMs and SERDs (10^−6 M) on the proliferation of MCF7 cells in response to E2 (10^−9 M) or insulin (2×10^−9 M) was evaluated as in FIG. 5. […] The profiles presented in dendogram format were analyzed with the Ward hierarchical clustering algorithm (JMP 11) using standardized data.

SMILES: Cc1c(-c2ccc(O)cc2)n(Cc2ccc(OCCN3CCCCCC3)cc2)c2ccc(O)cc12 [BZA, bazedoxifene]
- cell proliferation [1]: inhibited cell proliferation
- insulin-stimulated proliferation [2]: efficiently inhibited

From US10420734B2, “Method of treating cancer using selective estrogen receptor modulators” (Duke University, priority 2014, dated 2019)
